According to PubChem BioAssay AID624297 (National Center for Advancing Translational Sciences (NCATS), 2012):
In all, about 340,000 compounds went through this assay and about 6,200 (1.8%) were called active. This list was built around the results that the source calls inconclusive (neither active nor inactive); the mix of calls is not that of the screen. Calls follow the shape of the dose curve; as a rule, active = well fitted activation curve with a large enough effect; inconclusive = small, poorly fitted or top-dose-only effect; inactive = no such curve, though single readings can be large or run the other way. Potencies beside an inconclusive call are fits to weak or partial responses and may not hold up.

Assay: A quantitative high throughput screen for small molecules that induce DNA re-replication in SW480 colon adenocarcinoma cells. Also: nearly all actives have a fitted effect of over 55% in size. As to re-replication activation: % of control where 0% means no effect.
Conditions: Hoechst DNA content imaging, 48 h; re-replication activation: at 46.1 µM (top of the series) unless noted
How it was run: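 Image-based DNA-content assay: after two days of treatment, nuclei were labelled with the DNA dye Hoechst and imaged, and hits were compounds raising the count of nuclei showing high fluorescence intensity.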
Potency is read from the fitted curve at half-maximal effect.

Row | Structure (SMILES) | Potency | re-replication activation
1 | COc1ccccc1N(C)S(=O)(=O)c1ccc(C(=O)NCc2ccc3c(c2)OCO3)cc1 | inconclusive: 29.1 µM [activator, partial curve, poor fit] | –
2 | CCOC(=O)Cc1c(C)nc2cc(C)nn2c1C | inconclusive: 0.58 µM [activator, partial curve, poor fit] | –
3 | CCC(C)NC(=O)C1CCN(C(=O)COc2ccc3c4c(c(=O)oc3c2C)CCCC4)CC1 (stereo not drawn) | inconclusive: 2.91 µM [activator, partial curve] | –
4 | COc1ccc(C(=O)Nc2cc(Cl)ccc2OC(=O)c2ccc(OC)cc2)cc1 | inconclusive: 20.6 µM [activator, partial curve, poor fit] | –
5 | CC(=O)C(Sc1ncnc2sc3c(c12)CCCC3)C(C)=O | – | inactive: -0.235%
6 | CC(C)C[C@@H](CN1CCCC1CN1C(=S)NC[C@@H]1Cc1ccc(O)cc1)N1C[C@H](Cc2ccccc2)N(CC2CCCCCC2)C1=S (stereo partly drawn) | – | inactive: -6.38%
7 | COc1cccc(NC(=S)NNC(=O)Cn2nc(C(F)F)cc2C(F)F)c1 | inconclusive: 0.164 µM [activator, full curve, poor fit] | –
8 | COCC1CCCCN1C(=O)CCCn1nnnc1CN1CCC(C)CC1 (stereo not drawn) | – | inactive: -8.18%
9 | CCN(CC)S(=O)(=O)c1cccc(C(=O)N/N=C/c2cccc(O)c2O)c1 | inconclusive: 6.51 µM [activator, single point] | –
10 | CCC(c1nnnn1Cc1ccccc1)N1CCN(c2ccc(OC)cc2)CC1 (stereo not drawn) | inconclusive: 8.2 µM [activator, single point] | –
11 | Cc1ccc(C)c(NC(=O)CSc2n[nH]c(-c3ccccn3)n2)c1 | inconclusive: 23.1 µM [activator, single point] | –
12 | CCOc1ccc2oc(C(=O)N(Cc3nnc(-c4ccccc4Cl)o3)C3CC3)c(C)c2c1 | – | inactive: -1.9%
13 | O=C(NCCNC(=O)c1cc(OCC(F)(F)F)ccc1OCC(F)(F)F)Nc1ccccc1 | inconclusive: 4.11 µM [activator, partial curve, poor fit] | –
14 | COc1ccccc1CNC(=O)c1[nH]c(C)c(C(C)=O)c1C | inconclusive: 0.164 µM [activator, full curve, poor fit] | –
15 | COc1ccccc1-n1cc([C@@H]2C[C@H]3CN(c4ccccc4)C(=O)[C@]34CCCN24)cn1 | active: 8.2 µM | –
16 | Cc1ccc(CN2CC(C(=O)Nc3cc(C)ccn3)CC2=O)cc1 (stereo not drawn) | active: 29.1 µM | –
17 | CCOc1ccc(/C=C2\C(=O)c3ccccc3OC2c2ccccc2)cc1 (stereo not drawn) | inconclusive: 23.1 µM [activator, single point] | –
18 | NC(=O)c1nsc(C(=O)N(c2cccc(F)c2)C(C(=O)NCC2CCCO2)c2c[nH]c3ccccc23)c1N (stereo not drawn) | inconclusive: 29.1 µM [activator, single point] | –
19 | Cc1ccc(Cl)cc1N1CCN(CC(=O)Nc2ccc(CN3CCCCC3)cc2)CC1 | – | inactive: -4.68% [at 9.22 µM]
20 | C[C@@H]1CN([C@@H](C)CO)C(=O)c2cccc(NC(=O)Nc3ccc4c(c3)OCO4)c2O[C@H]1CN(C)S(=O)(=O)c1cn(C)cn1 | inconclusive: 0.164 µM [activator, full curve, poor fit] | –
21 | CCSc1nnc(NC(=O)CSc2nc3c(c(=O)n2C)SC(C)C3)s1 (stereo not drawn) | – | inactive: 3.21%
22 | CC(C)OC(=O)NC(C)(C)COC(=O)Nc1cccc(Cl)c1 | – | inactive: -6.56%
23 | CCn1c2ccccc2c(=O)c2ccccc21 | active: 23.1 µM | –

A second format for some results above:
NC(=O)c1nsc(C(=O)N(c2cccc(F)c2)C(C(=O)NCC2CCCO2)c2c[nH]c3ccccc23)c1N (stereo not drawn)
  Potency: inconclusive: 29.1 µM [activator, single point]
Cc1ccc(Cl)cc1N1CCN(CC(=O)Nc2ccc(CN3CCCCC3)cc2)CC1
  re-replication activation: inactive: -4.68% [at 9.22 µM]
C[C@@H]1CN([C@@H](C)CO)C(=O)c2cccc(NC(=O)Nc3ccc4c(c3)OCO4)c2O[C@H]1CN(C)S(=O)(=O)c1cn(C)cn1
  Potency: inconclusive: 0.164 µM [activator, full curve, poor fit]
CCSc1nnc(NC(=O)CSc2nc3c(c(=O)n2C)SC(C)C3)s1 (stereo not drawn)
  re-replication activation: inactive: 3.21%

Next part:

Row | Structure (SMILES) | Potency | re-replication activation
24 | CCc1cc2c(CN3CCN(Cc4ccccc4)CC3)cc(=O)oc2cc1O | inconclusive: 20.6 µM [activator, single point] | –
25 | COc1ccc(C)cc1NC(=O)Nc1ccc(Br)cn1 | – | inactive: -22.3%
26 | COCCCN(Cc1cccs1)S(=O)(=O)c1c[nH]c(C(=O)OC)c1 | inconclusive: 0.231 µM [activator, full curve, poor fit] | –
27 | COc1ccc([C@@]2(C(C)C)ON(c3ccccc3C(F)(F)F)C2=O)cc1 | inconclusive: 20.6 µM [activator, single point] | –
28 | C/C(=N\NC(=O)c1nnn(-c2nonc2N)c1C(C)C)c1cc(C)sc1C | – | inactive: -3.73%
29 | CCCn1cnc2cc(NC(=O)c3ccco3)ccc21 | inconclusive: 20.6 µM [activator, partial curve, poor fit] | –
30 | COc1ccc(OCCC(=O)OCC(=O)NCc2ccccc2OC)cc1 | – | inactive: -25.7%
31 | Cc1ccc(NC2=C(Cl)C(=O)OC2OC(=O)c2ccccc2)c(C)c1 (stereo not drawn) | inconclusive: 29.1 µM [activator, single point] | –
32 | Cc1ccc(S(=O)(=O)N(CC(=O)N/N=C/c2cccc(Cl)c2)c2cccc3cccnc23)cc1 | active: 16.4 µM | –
33 | CC(C)(C)c1nnc2sc(SCC(=O)N3CCCc4ccccc43)nn2c1=O | inconclusive: 32.6 µM [activator, partial curve, poor fit] | –
34 | COC(=O)c1c(NC(=O)c2ccc(S(=O)(=O)N3CCOCC3)cc2)sc2c1CCN(C)C2 | inconclusive: 35.5 µM [activator, single point] | –
35 | CSc1nc(N(CCO)CCO)c2sc3nc(-c4ccco4)c4c(c3c2n1)CCC4 | inconclusive: 20.6 µM [activator, single point] | –
36 | Cc1ccc([N+](=O)[O-])c(OCCCN2CCC(Cc3ccccc3)CC2)c1 | inconclusive: 4.61 µM [activator, full curve, poor fit] | –
37 | Cc1ccc2c(c1)N(C(=O)CCC(=O)NCCCN1CCC(Cc3ccccc3)CC1)CCO2 | inconclusive: 23.1 µM [activator, single point] | –
38 | O=C(O)c1ccc(N=C2SCC(=O)N2Cc2ccccc2)cc1 | – | inactive: 7.15%
39 | COc1ccccc1CNC(=O)C1CCN(S(=O)(=O)c2ccc3c(c2)OCCCO3)CC1 | – | inactive: 20.8%
40 | Cc1ccc2[nH]c3c(=O)n(N)c(=O)[nH]c3c2c1 | – | inactive: -29%
41 | C=CCN1C(=O)C2(OCCCO2)c2cc(C)ccc21 | inconclusive: 6.51 µM [activator, single point] | –
42 | COCCNC(=O)c1onc(CCl)c1C(=O)OC | inconclusive: 20.6 µM [activator, single point] | –
43 | COc1ccccc1CNC(=O)COC(=O)/C=C/c1ccc2c(c1)OCO2 | – | inactive: -6.1%
44 | CC(=O)OC1(C(C)=O)CCC2C3CC(C(F)(F)F)C4=CC(=O)CCC4(C)C3CCC21C (stereo not drawn) | inconclusive: 25.9 µM [activator, single point] | –
45 | Cc1ccc(-n2ccn(CC(=O)NCCc3ccccc3)c(=O)c2=O)cc1C | – | inactive: -26.2%
46 | O=C(Nc1cccc(Br)c1)C1CCCC1 | inconclusive: 16.4 µM [activator, single point] | –

Row | Structure (SMILES) | Potency | re-replication activation
47 | O=C(Cc1ccc(F)cc1)Nc1nc(-c2ccc(F)c(F)c2)cs1 | – | inactive: 8.49%
48 | COc1cc(/C=N/NC(=O)c2ccccc2Cl)ccc1Oc1ccc([N+](=O)[O-])cn1 | inconclusive: 0.92 µM [activator, full curve] | –
49 | CC(C)[C@H](NC(=O)N1CCn2c1nc1ccccc12)C(=O)N[C@@H](Cc1ccccc1)C(=O)O | – | inactive: -2.68%
50 | CCC(=O)OCCNc1cc(Sc2nc3ccccc3s2)c2nonc2c1[N+](=O)[O-] | – | inactive: -11.5%
51 | COc1ccc(Cc2n[nH]c(=S)n2-c2ccc3c(c2)OCCO3)cc1 | – | inactive: -5.56%
52 | CC(=O)C1=C(C)NC(=S)NC1c1cc([N+](=O)[O-])ccc1O (stereo not drawn) | inconclusive: 2.31 µM [activator, partial curve, poor fit] | –
53 | CCOc1ccccc1N(CC(=O)N1CCc2ccccc2C1)S(C)(=O)=O | – | inactive: -0.512%
54 | Cc1ccc(C(=O)OCc2cc(=O)n3c(C)csc3n2)s1 | inconclusive: 29.1 µM [activator, single point] | –
55 | O=C(CCNS(=O)(=O)c1ccccc1)NNC(=O)c1csc(N2CCOCC2)n1 | inconclusive: 0.0184 µM [activator, full curve, poor fit] | –
56 | COc1ccc(CC(=O)NNC(=O)c2ccco2)cc1OC | inconclusive: 0.112 µM [activator, full curve, poor fit] | –
57 | COc1ccc(-c2cc(=O)oc3cc(OCC(=O)N(C)C)ccc23)cc1 | inconclusive: 3.26 µM [activator, full curve, poor fit] | –
58 | Cn1c(SCc2ccccc2)nc2c1c(=O)[nH]c(=O)n2C | inconclusive: 0.326 µM [activator, full curve, poor fit] | –
59 | Cc1ccccc1Cn1ccc(NC(=O)c2cc3nc(-c4ccco4)cc(C(F)(F)F)n3n2)n1 | inconclusive: 5.17 µM [activator, full curve] | –
60 | C/C(=N\Nc1cc(N2CCOCC2)ncn1)c1ccc(O)cc1 | inconclusive: 23.1 µM [activator, single point] | –
61 | CC(=O)Nc1sc(N/N=C/c2ccccc2)nc1-c1ccc(C)cc1 | – | inactive: -4.37%
62 | CCOC(=O)c1nnn(-c2nonc2-n2cccc2)c1CCl | inconclusive: 16.4 µM [activator, partial curve, poor fit] | –
63 | COc1ccc(C)cc1NC(=O)CN1CCN(C/C=C/c2ccccc2)CC1 | inconclusive: 13 µM [activator, partial curve, poor fit] | –
64 | COc1ccccc1C(CNC(=O)CCNS(=O)(=O)c1ccc(Br)cc1)N1CCCC1 (stereo not drawn) | active: 6.51 µM | –
65 | CC(=O)Oc1ccc(Cl)cc1CN(C(C)=O)C1CCCCC1 | – | inactive: -5.79%
66 | O=C(Oc1cccc(C(=S)N2CCOCC2)c1)c1cc([N+](=O)[O-])cc([N+](=O)[O-])c1 | inconclusive: 3.66 µM [activator, full curve, poor fit] | –
67 | CC(C)N=C1NN=C(c2ccc(Cl)c(Cl)c2)CS1 | inconclusive: 18.4 µM [activator, single point] | –
68 | Cc1ccc(N2CCN(c3ncccc3[N+](=O)[O-])CC2)c(C)c1 | – | inactive: 2.49%
